These are yes or no findings as the source states them, for the method shown. In cells and extracts the contact can be indirect. A yes stands for co-enrichment or nearness to the bait. Other partners may have been found.
target: FLAG-eEF1A2 SE (phosphomimetic mutant) (UniProt Q05639); experiment: affinity purification with mass spectrometry

Chains of the proteins cited; added tags and fusions are not shown. Lines headed by an entry give the natural chain unless they say otherwise; changes in a name come on top. A line that says so, or that is headed by a name, gives the form on record, which may keep a tag or linker.
UniProt Q05639: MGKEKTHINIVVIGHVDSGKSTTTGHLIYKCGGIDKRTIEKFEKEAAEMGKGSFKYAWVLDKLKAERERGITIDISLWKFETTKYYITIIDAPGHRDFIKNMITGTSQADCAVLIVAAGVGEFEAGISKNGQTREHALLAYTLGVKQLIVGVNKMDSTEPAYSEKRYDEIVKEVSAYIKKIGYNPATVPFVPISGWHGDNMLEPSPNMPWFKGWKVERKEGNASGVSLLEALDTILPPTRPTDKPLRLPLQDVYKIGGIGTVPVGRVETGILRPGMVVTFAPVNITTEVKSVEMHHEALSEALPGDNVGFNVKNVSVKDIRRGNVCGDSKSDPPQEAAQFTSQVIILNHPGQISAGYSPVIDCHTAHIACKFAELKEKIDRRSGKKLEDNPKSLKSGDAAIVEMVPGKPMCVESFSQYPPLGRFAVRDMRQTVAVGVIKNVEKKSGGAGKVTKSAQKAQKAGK
FLAG-eEF1A2 SE (Q05639, form named): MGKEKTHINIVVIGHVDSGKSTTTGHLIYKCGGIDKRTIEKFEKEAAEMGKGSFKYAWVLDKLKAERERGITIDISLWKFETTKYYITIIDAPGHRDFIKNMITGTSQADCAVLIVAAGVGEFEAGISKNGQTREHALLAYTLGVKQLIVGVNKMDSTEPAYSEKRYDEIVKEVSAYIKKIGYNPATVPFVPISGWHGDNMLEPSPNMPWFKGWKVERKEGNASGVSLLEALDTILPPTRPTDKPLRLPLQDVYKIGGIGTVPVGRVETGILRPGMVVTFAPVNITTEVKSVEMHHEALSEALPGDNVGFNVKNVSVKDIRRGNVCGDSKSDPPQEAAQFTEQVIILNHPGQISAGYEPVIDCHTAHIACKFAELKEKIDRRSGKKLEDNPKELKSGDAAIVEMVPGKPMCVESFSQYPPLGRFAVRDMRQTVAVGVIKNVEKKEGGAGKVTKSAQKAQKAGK
FLAG-eEF1A2 SA (Q05639, form named): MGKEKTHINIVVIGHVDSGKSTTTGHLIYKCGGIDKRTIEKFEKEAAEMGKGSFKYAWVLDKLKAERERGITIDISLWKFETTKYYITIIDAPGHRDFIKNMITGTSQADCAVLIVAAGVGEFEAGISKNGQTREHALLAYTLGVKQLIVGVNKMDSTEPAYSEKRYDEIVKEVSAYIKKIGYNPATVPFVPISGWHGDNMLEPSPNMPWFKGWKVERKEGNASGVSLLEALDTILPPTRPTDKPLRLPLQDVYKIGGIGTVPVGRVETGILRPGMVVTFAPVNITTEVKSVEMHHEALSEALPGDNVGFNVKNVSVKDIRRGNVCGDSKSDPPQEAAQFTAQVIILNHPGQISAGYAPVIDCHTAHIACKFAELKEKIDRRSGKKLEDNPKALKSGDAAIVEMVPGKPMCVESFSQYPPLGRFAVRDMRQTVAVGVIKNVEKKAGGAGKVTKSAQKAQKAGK
UniProt P47756: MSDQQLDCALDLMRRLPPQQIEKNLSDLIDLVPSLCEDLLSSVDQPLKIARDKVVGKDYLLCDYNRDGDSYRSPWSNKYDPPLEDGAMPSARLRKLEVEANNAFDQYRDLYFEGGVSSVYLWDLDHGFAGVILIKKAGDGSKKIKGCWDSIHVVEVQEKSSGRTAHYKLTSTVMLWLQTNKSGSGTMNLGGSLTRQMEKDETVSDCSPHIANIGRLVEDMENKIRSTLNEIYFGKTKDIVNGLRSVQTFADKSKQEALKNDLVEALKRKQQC
UniProt O75369: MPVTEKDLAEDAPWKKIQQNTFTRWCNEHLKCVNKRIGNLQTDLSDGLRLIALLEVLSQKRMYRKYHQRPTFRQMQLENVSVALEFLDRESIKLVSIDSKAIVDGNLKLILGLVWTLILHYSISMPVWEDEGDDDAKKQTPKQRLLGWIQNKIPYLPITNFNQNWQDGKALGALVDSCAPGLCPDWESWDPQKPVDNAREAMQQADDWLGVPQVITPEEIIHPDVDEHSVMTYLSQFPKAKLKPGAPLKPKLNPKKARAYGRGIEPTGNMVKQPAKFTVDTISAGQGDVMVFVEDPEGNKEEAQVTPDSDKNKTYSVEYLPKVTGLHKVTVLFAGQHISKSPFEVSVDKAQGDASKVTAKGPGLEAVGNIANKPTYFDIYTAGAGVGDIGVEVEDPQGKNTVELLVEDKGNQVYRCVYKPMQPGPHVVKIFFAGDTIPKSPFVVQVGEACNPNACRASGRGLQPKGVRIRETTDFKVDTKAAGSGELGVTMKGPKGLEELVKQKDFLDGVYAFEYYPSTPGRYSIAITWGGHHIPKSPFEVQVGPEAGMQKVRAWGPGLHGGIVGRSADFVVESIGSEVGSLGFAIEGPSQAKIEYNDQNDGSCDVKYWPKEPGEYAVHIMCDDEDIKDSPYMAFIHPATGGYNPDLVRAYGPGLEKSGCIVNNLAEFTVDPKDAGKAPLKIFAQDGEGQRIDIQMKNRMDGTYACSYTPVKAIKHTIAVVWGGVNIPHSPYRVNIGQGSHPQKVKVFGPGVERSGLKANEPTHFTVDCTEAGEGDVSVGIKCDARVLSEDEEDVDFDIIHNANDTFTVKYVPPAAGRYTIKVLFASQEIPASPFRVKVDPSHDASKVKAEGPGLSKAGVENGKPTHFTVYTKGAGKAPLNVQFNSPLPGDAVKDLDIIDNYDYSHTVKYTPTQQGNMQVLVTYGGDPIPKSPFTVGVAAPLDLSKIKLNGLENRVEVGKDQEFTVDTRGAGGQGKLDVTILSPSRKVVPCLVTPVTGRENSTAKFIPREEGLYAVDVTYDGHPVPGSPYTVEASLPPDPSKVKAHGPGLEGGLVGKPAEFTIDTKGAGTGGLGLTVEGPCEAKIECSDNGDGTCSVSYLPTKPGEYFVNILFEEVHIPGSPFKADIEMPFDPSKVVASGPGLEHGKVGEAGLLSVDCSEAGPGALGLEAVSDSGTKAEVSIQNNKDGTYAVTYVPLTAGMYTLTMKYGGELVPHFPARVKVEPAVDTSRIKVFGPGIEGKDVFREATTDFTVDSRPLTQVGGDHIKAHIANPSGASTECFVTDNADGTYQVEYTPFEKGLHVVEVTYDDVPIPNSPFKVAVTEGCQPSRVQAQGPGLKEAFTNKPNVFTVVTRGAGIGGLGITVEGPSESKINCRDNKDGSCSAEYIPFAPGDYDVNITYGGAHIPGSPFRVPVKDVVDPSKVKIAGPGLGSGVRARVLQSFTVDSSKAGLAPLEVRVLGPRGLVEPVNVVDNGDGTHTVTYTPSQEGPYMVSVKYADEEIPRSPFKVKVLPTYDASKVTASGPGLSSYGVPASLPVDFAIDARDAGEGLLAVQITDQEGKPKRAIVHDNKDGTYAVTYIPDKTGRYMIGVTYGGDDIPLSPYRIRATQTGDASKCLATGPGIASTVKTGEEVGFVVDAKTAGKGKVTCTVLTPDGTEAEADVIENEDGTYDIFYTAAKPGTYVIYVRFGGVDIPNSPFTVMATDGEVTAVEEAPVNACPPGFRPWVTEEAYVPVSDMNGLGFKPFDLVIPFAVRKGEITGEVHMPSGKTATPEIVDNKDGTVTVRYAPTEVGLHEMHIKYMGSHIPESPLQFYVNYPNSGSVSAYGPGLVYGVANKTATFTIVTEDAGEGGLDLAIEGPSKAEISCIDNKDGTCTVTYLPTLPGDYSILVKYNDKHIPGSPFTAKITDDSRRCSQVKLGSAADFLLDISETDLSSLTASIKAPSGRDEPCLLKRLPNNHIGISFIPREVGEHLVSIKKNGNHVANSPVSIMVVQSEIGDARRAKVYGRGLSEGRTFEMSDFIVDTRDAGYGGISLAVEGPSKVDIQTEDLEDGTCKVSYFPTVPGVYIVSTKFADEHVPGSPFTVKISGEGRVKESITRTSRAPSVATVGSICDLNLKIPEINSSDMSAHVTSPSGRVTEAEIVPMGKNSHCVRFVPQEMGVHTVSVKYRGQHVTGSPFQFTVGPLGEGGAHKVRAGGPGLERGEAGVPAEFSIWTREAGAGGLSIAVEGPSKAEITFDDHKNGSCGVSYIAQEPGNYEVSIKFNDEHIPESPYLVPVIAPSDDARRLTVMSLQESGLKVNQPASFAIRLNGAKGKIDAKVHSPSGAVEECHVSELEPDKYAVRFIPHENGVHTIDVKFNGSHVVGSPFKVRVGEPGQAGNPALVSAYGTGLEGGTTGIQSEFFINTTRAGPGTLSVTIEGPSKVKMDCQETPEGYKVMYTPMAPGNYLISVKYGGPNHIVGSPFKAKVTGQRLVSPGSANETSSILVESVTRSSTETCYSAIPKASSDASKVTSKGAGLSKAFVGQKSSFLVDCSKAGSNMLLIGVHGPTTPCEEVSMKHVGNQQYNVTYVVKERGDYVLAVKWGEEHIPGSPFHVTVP
UniProt P61586: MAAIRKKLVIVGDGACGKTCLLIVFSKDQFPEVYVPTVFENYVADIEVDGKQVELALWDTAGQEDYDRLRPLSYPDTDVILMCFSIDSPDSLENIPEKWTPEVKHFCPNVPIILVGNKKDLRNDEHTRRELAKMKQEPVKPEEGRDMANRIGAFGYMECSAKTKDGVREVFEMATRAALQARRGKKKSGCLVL
UniProt O43707: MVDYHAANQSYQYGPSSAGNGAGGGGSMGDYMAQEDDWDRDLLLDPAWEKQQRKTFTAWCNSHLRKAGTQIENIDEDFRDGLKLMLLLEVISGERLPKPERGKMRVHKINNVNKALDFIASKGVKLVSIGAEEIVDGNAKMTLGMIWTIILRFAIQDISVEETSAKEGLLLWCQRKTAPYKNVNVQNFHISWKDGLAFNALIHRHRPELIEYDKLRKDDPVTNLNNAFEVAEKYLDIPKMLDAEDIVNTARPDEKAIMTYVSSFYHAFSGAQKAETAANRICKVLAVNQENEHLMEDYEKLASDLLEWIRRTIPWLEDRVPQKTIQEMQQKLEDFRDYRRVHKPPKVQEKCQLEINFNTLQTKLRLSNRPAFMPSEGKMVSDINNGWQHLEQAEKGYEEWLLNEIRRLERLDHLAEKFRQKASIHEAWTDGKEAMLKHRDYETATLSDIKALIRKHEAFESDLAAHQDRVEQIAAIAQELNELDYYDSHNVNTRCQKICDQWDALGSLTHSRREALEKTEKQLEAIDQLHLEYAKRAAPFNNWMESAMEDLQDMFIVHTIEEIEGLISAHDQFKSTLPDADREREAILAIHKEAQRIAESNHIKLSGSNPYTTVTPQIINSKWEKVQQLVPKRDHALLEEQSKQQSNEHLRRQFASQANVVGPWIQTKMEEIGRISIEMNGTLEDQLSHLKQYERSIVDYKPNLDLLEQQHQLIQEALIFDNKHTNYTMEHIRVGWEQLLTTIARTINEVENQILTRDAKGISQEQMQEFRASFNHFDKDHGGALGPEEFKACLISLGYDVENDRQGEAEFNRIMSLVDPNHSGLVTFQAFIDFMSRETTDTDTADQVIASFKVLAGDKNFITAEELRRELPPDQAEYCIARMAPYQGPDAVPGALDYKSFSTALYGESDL
UniProt P68104: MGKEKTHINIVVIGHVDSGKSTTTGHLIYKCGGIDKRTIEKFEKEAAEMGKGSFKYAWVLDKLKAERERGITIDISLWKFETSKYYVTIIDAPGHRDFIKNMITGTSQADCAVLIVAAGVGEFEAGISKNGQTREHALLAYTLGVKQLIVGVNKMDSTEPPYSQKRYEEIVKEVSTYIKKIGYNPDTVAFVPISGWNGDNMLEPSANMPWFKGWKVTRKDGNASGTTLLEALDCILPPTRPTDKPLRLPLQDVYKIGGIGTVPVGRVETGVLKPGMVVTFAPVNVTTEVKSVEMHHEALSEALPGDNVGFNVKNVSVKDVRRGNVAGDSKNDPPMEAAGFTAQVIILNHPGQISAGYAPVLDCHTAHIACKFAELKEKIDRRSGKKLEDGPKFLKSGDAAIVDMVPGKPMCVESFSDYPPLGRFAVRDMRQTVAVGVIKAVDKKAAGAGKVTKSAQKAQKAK
UniProt P29692: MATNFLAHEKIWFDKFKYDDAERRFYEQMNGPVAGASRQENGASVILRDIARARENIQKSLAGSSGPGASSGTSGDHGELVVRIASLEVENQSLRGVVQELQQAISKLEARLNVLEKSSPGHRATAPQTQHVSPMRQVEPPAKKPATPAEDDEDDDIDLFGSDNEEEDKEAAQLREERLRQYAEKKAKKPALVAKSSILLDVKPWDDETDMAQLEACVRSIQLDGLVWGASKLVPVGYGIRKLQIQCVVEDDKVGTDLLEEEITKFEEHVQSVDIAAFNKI
UniProt P26641: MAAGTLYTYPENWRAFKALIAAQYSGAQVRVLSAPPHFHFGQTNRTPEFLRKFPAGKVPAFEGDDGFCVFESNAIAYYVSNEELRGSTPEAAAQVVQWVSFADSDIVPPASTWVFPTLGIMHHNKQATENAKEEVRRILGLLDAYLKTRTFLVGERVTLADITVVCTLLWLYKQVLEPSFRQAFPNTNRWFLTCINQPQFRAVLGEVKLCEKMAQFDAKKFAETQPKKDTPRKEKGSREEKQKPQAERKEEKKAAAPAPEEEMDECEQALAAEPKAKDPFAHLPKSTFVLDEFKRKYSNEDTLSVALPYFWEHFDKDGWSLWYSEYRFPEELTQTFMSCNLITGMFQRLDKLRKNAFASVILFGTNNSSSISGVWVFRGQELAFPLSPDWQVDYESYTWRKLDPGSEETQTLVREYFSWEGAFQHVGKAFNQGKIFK

binding	Molecule
binds	F-actin-capping β (from UniProt P47756 1-272)
binds	Filamin-B (from UniProt O75369 1-2602)
binds	RhoA (from UniProt P61586 1-193)
binds	Shroom3 (from UniProt Q8TF72 1-1996)
binds	α-actinin-4 (from UniProt O43707 1-911)

target: FLAG-eEF1A2 SA (phosphoablated mutant) (UniProt Q05639); experiment: affinity purification with mass spectrometry

binding	Molecule
binds	eEF1A1 (from UniProt P68104 1-462)
binds	eEF1D (from UniProt P29692 1-281)
binds	eEF1G (from UniProt P26641 1-437)
binds	Valyl-tRNA synthetase 1 (protein, UniProt P26640 1-1264) MSTLYVSPHPDAFPSLRALIAARYGEAGEGPGWGGAHPRICLQPPPTSRTPFPPPRLPALEQGPGGLWVWGATAVAQLLWPAGLGGPGGSRAAVLVQQWVSYADTELIPAACGATLPALGLRSSAQDPQAVLGALGRALSPLEEWLRLHTYLAGEAPTLADLAAVTALLLPFRYVLDPPARRIWNNVTRWFVTCVRQPEFRAVLGEVVLYSGARPLSHQPGPEAPALPKTAAQLKKEAKKREKLEKFQQKQKIQQQQPPPGEKKPKPEKREKRDPGVITYDLPTPPGEKKDVSGPMPDSYSPRYVEAAWYPWWEQQGFFKPEYGRPNVSAANPRGVFMMCIPPPNVTGSLHLGHALTNAIQDSLTRWHRMRGETTLWNPGCDHAGIATQVVVEKKLWREQGLSRHQLGREAFLQEVWKWKEEKGDRIYHQLKKLGSSLDWDRACFTMDPKLSAAVTEAFVRLHEEGIIYRSTRLVNWSCTLNSAISDIEVDKKELTGRTLLSVPGYKEKVEFGVLVSFAYKVQGSDSDEEVVVATTRIETMLGDVAVAVHPKDTRYQHLKGKNVIHPFLSRSLPIVFDEFVDMDFGTGAVKITPAHDQNDYEVGQRHGLEAISIMDSRGALINVPPPFLGLPRFEARKAVLVALKERGLFRGIEDNPMVVPLCNRSKDVVEPLLRPQWYVRCGEMAQAASAAVTRGDLRILPEAHQRTWHAWMDNIREWCISRQLWWGHRIPAYFVTVSDPAVPPGEDPDGRYWVSGRNEAEAREKAAKEFGVSPDKISLQQDEDVLDTWFSSGLFPLSILGWPNQSEDLSVFYPGTLLETGHDILFFWVARMVMLGLKLTGRLPFREVYLHAIVRDAHGRKMSKSLGNVIDPLDVIYGISLQGLHNQLLNSNLDPSEVEKAKEGQKADFPAGIPECGTDALRFGLCAYMSQGRDINLDVNRILGYRHFCNKLWNATKFALRGLGKGFVPSPTSQPGGHESLVDRWIRSRLTEAVRLSNQGFQAYDFPAVTTAQYSFWLYELCDVYLECLKPVLNGVDQVAAECARQTLYTCLDVGLRLLSPFMPFVTEELFQRLPRRMPQAPPSLCVTPYPEPSECSWKDPEAEAALELALSITRAVRSLRADYNLTRIRPDCFLEVADEATGALASAVSGYVQALASAGVVAVLALGAPAPQGCAVALASDRCSIHLQLQGLVDPARELGKLQAKRVEAQRQAQRLRERRAASGYPVKVPLEVQEADEAKLQQTEAELRKVDEAIALFQKML

The next lines start with the molecule.

Molecule	binding
eEF1B2 (endogenous) (protein, UniProt P24534 1-225) MGFGDLKSPAGLQVLNDYLADKSYIEGYVPSQADVAVFEAVSSPPPADLCHALRWYNHIKSYEKEKASLPGVKKALGKYGPADVEDTTGSGATDSKDDDDIDLFGSDDEEESEEAKRLREERLAQYESKKAKKPALVAKSSILLDVKPWDDETDMAKLEECVRSIQADGLVWGSSKLVPVGYGIKKLQIQCVVEDDKVGTDMLEEQITAFEDYVQSMDVAAFNKI	binds
Cysteinyl-tRNA synthetase (protein, UniProt P49589 1-748) MADSSGQQGKGRRVQPQWSPPAGTQPCRLHLYNSLTRNKEVFIPQDGKKVTWYCCGPTVYDASHMGHARSYISFDILRRVLKDYFKFDVFYCMNITDIDDKIIKRARQNHLFEQYREKRPEAAQLLEDVQAALKPFSVKLNETTDPDKKQMLERIQHAVQLATEPLEKAVQSRLTGEEVNSCVEVLLEEAKDLLSDWLDSTLGCDVTDNSIFSKLPKFWEGDFHRDMEALNVLPPDVLTRVSEYVPEIVNFVQKIVDNGYGYVSNGSVYFDTAKFASSEKHSYGKLVPEAVGDQKALQEGEGDLSISADRLSEKRSPNDFALWKASKPGEPSWPCPWGKGRPGWHIECSAMAGTLLGASMDIHGGGFDLRFPHHDNELAQSEAYFENDCWVRYFLHTGHLTIAGCKMSKSLKNFITIKDALKKHSARQLRLAFLMHSWKDTLDYSSNTMESALQYEKFLNEFFLNVKDILRAPVDITGQFEKWGEEEAELNKNFYDKKTAIHKALCDNVDTRTVMEEMRALVSQCNLYMAARKAVRKRPNQALLENIALYLTHMLKIFGAVEEDSSLGFPVGGPGTSLSLEATVMPYLQVLSEFREGVRKIAREQKVPEILQLSDALRDNILPELGVRFEDHEGLPTVVKLVDRNTLLKEREEKRRVEEEKRKKKEEAARRKQEQEAAKLAKMKIPPSEMFLSETDKYSKFDENGLPTHDMEGKELSKGQAKKLKKLFEAQEKLYKEYLQMAQNGSFQ	binds

Source: paper doi:10.1101/2020.10.20.346858
